Results on 104 compounds are retold here after the supplement of paper PMC12578635.

± gives the standard deviation of the averaged measurements. The list shows a part of the results. Repeats are few or missing, and single values can be far off.

This test deals with RAW 264.7 macrophages infected with S. aureus JE2-lux. The test can be described thus: host macrophage viability (CellTiter-Fluor) relative to DMSO vehicle; higher = more viable host cells. The following applies: 10 µM; treatment time 4 h; gentamicin 50 µg/ml.
As for `Cc1ccc(C)c(N(C(=O)c2csnn2)C(C(=O)NC2CCCCC2)c2ccccn2)c1` (centres undefined), the host macrophage viability was determined as 108%.

Consider `COC(=O)c1ccc(CSc2nc3c(c(=O)n2-c2ccccc2)SCC3)o1`, for which the host macrophage viability is 99.2%.

In the case of `Cn1c(=O)c2c(nc(Br)n2CC(=O)c2ccccc2)n(C)c1=O`, the host macrophage viability was determined as 117%.

For the compound `O=c1[nH]c2ccccc2n1CCCOc1ccc(Cl)cc1`, the host macrophage viability was determined as 112%.

`CN1CCOc2ccc(NC(=O)CN3C(=O)c4ccccc4C3=O)cc2C1=O`: the host macrophage viability came to 116%.

Consider `CC1=NN(c2ccccc2)C(=N)/C1=N\Nc1cccnc1`, for which the host macrophage viability worked out at 112%.

On to `Cc1cc2ccccc2n2c(=O)n(CCNC(=O)C3CC(=O)N(C)C3)nc12` (centres undefined), for which the host macrophage viability is 114%.

On to `O=C(Nc1ccc(Cl)cc1)c1ccc(-c2nc3ccccc3s2)s1`, for which the host macrophage viability amounted to 122%.

As to `COc1ccc(-c2nnc3n2N=C(c2cccc([N+](=O)[O-])c2)CS3)cc1`, the host macrophage viability was determined as 128%.

For `Cc1occc1-c1nnc(SCC(=O)NCCc2nc3ccccc3[nH]2)o1`, the host macrophage viability is 123%.

For `COc1ccc(C(=O)CSc2nc3[nH]ncc3c(=O)[nH]2)cc1`, the host macrophage viability worked out at 115%.

For `CC(CNc1nccn(-c2ccc3c(c2)OCO3)c1=O)c1ccccc1` (centres undefined), the host macrophage viability amounted to 116%.

As for `COc1cc(NS(=O)(=O)c2ccc(NC(=O)c3ccc(Cl)cc3Cl)cc2)ncn1`, the host macrophage viability is 119%.

With `COc1ccc(-n2cnc3c(C)nc(-n4nc(C)cc4C)nc32)cc1`, the host macrophage viability was 98.4%.

As to `COc1ccccc1OCC(=O)Nn1cnc2c(cnn2-c2ccc(C)cc2)c1=O`, the host macrophage viability was 128%.

Regarding `COCCCN1CCn2c(nc3cc(NC(=O)c4ccccc4OC)ccc32)C1`, the host macrophage viability was found to be 96.2%.

For `COc1cccc(C(=O)OCn2nnc3ccccc3c2=O)c1OC`, the host macrophage viability amounted to 109%.

As to `O=C(O)CC1SC(Nc2ccc(O)cc2)=NC1=O` (centres undefined), the host macrophage viability amounted to 116%.

Take `CSc1nnc(C)c(=O)n1COC(=O)/C=C/c1ccc2c(c1)OCO2`: the host macrophage viability amounted to 113%.

For the compound `Cc1cc(OC(=O)c2ccc(S(=O)(=O)N3CCOCC3)cc2)c([N+](=O)[O-])c(=O)[nH]1`, the host macrophage viability amounted to 120%.

Take `CCCc1cc(C(=O)N2CCCC2c2cccs2)no1` (centres undefined): the host macrophage viability is 112%.

Consider `COc1ccc(Cl)cc1NC(=O)C(C)n1nc(-c2cc(C)oc2C)cc(N)c1=O` (centres undefined), for which the host macrophage viability was found to be 105%.

Turning to `CCc1nnc(NC(=O)CSc2ncnc3c2cnn3-c2ccc(Cl)cc2)s1`, the host macrophage viability is 110%.

As for `Cc1ccc(NC(=O)Cn2nnc(-c3c[nH]c4ccccc34)n2)c(C)c1`, the host macrophage viability came out at 117%.

As to `O=C(Nc1ccc(Br)cc1)C1CCN(C(=O)NCc2ccccc2)CC1`, the host macrophage viability was determined as 116%.

On to `Cc1ccc(/C=C(/C#N)C(=O)Nc2sc3c(c2C(N)=O)CCCC3)o1`, for which the host macrophage viability is 106 ± 9%.

Take `CCn1c(SCC(=O)Nc2cc(C)on2)nc2c(c1=O)SC(C)C2` (centres undefined): the host macrophage viability was 105%.

`CCc1ccc(N2C(=O)SC(Nc3ccc(S(N)(=O)=O)cc3)C2=O)cc1` (centres undefined): the host macrophage viability amounted to 113%.

Consider `CCOC(=O)c1sc2nc(NC(=O)c3ccccc3OC)sc2c1C`, for which the host macrophage viability was determined as 122%.

`CCOC(=O)c1cnc(SCC(=O)c2ccc(F)cc2)nc1N`: the host macrophage viability was determined as 109%.

In the case of `O=C(COC(=O)c1cc(O)nc2ccccc12)c1ccc(Cl)cc1`, the host macrophage viability is 117%.

On to `O=C1c2ccncc2C(=O)N1CNc1ccc(Br)cc1`, for which the host macrophage viability amounted to 117%.

As for `CCCCC(=O)N1CCN(c2nn3c(NC(C)(C)C)c(-c4cccc(C)c4)nc3s2)CC1`, the host macrophage viability was 139%.

For the compound `COc1ccc2cc(CN(C)Cc3n[nH]c4c3CCCC4)c(OC)nc2c1`, the host macrophage viability was determined as 109%.

As for `Cc1ccc(CNC(=O)c2cnc3c(c(C)nn3-c3ccccc3)c2NCc2ccc(Cl)cc2)o1`, the host macrophage viability was 76%.

As for `CCC(=O)Nc1nc(-c2ccc3c(c2)OCCO3)cs1`, the host macrophage viability is 120%.

With `O=C(CN1C(=O)CC(c2ccccc2)Sc2ccccc21)Nc1ccc(F)cc1F` (centres undefined), the host macrophage viability worked out at 110 ± 8.4%.

In the case of `CCc1nc(-c2csc(S(=O)(=O)N3CCC(C(=O)N4CCc5ccccc5C4)CC3)c2)no1`, the host macrophage viability amounted to 115%.

For `O=C(OCn1nnc2ccccc2c1=O)c1cccs1`, the host macrophage viability was determined as 96%.

For `COc1ccc(CC(=O)N2CCC(c3nnc(C(=O)Nc4ccccc4C)s3)CC2)cc1OC`, the host macrophage viability was found to be 98.1%.

For the compound `O=C(CSc1nc(-c2ccccc2Cl)ns1)Nc1nccs1`, the host macrophage viability worked out at 105 ± 3.9%.

As to `O=C(/C=C/c1ccc2c(c1)OCO2)NCCc1csc2nc(-c3ccc(F)cc3)nn12`, the host macrophage viability was 127%.

With `CC(C)N1CCn2c(nc3cc(NS(C)(=O)=O)ccc32)C1`, the host macrophage viability was 106%.

For the compound `COc1cc(/C=N/n2cnnc2)ccc1OC(=O)c1ccncc1`, the host macrophage viability came out at 92.8%.

With `CC(=O)c1cccc(NC(=O)CSc2nc(=O)n(N3CCN(C)CC3)c3c2CCCC3)c1`, the host macrophage viability was 108%.

For `N#Cc1c(NC(=O)c2nc3ccccc3s2)sc2c1CCN(Cc1ccccc1)C2`, the host macrophage viability is 92.2%.

Take `CC(=O)c1[nH]c(C)c(C(=O)NCCn2nc3c(C)cc4ccc(C)cc4n3c2=O)c1C`: the host macrophage viability is 114%.

Regarding `O=C(CSc1nnc2[nH]c(=O)ccn12)Nc1ccc(Br)cc1`, the host macrophage viability was determined as 105%.

In the case of `O=C(CSc1ncnc2c1oc1ccccc12)Nc1ccc([N+](=O)[O-])cc1`, the host macrophage viability was 129%.

In the case of `O=C(NCC1COC2(CCCCC2)O1)Nc1ccc(Cl)cc1` (centres undefined), the host macrophage viability stood at 112%.

In the case of `O=C(NCCCN1CCCC1=O)c1ncoc1-c1ccc(F)cc1`, the host macrophage viability worked out at 109%.

As to `CCOc1ccc(-c2cc(C(=O)Nc3cc(C)on3)no2)cc1`, the host macrophage viability was found to be 122%.

For `COc1cc(C(=O)Oc2coc(CSc3nc(C)cc(C)n3)cc2=O)c([N+](=O)[O-])cc1OC`, the host macrophage viability was found to be 115%.

For the compound `Cc1cccc(OCCCN2C(=O)C(=O)c3cc(Br)cc(C)c32)c1`, the host macrophage viability came to 119%.

As to `O=C1NC(=O)c2cc(S(=O)(=O)N(CCO)CCO)cc3cccc1c23`, the host macrophage viability worked out at 112%.

Consider `Cc1ccc(NC(=O)CN2C(=O)/C(=C\c3cccs3)SC2=S)cc1C`, for which the host macrophage viability is 107%.

Turning to `CC12CC(NC(=O)N1c1cccc(F)c1)c1cc([N+](=O)[O-])ccc1O2` (centres undefined), the host macrophage viability came out at 98.5%.

Turning to `COc1ccc(OC)c(NC(=O)CSc2nc3ccccc3c(=O)n2C)c1`, the host macrophage viability came to 118%.

Turning to `Cc1nn(-c2ccc3nncn3n2)c(C)c1Sc1nnc(N)s1`, the host macrophage viability was 117%.

As for `O=C(CSc1nc(=O)n2ccccc2n1)N1CCc2ccccc21`, the host macrophage viability stood at 121%.

For `Cc1[nH]c2nc(CNc3ccccc3F)nn2c(=O)c1Cc1ccccc1`, the host macrophage viability amounted to 97.6%.

Regarding `O=[N+]([O-])c1ccc2sc(SCc3nc4ncccn4c3Br)nc2c1`, the host macrophage viability was determined as 115%.

For `CCS(=O)(=O)c1ccccc1C(=O)Nc1ccc2nc(C)sc2c1`, the host macrophage viability turned out to be 120%.

`O=C(Nc1nc2ccc3ccccc3c2s1)c1ccc(S(=O)(=O)N2CCc3ccccc32)cc1`: the host macrophage viability is 118 ± 4.5%.

Take `Cc1cccc(N2CCN(c3nccnc3SCC(=O)Nc3ccccc3Cl)CC2)c1C`: the host macrophage viability came out at 118%.

In the case of `COC(=O)c1cc(Nc2nc(C)nc3sc4c(c23)CCC4)cc(C(=O)OC)c1`, the host macrophage viability was 138%.

Take `Cc1ccc(Cc2nnc(SCC(=O)Nc3cccc(Cl)c3C)n(N)c2=O)cc1`: the host macrophage viability worked out at 97.9%.

As to `CCCCC(=O)Nc1cnc(N2CCN(c3ccccn3)CC2)c(C(=O)O)c1`, the host macrophage viability was 87.6%.

Take `CCS(=O)(=O)N1CCCC(C(=O)NCC2CCCO2)C1` (centres undefined): the host macrophage viability worked out at 98.1%.

With `CCS(=O)(=O)N1CCC(Nc2nc3c(c(=O)[nH]2)CCCC3)CC1`, the host macrophage viability amounted to 112%.

Take `Cc1ccc(NC(=O)CSc2nc3cc(C)cc(C)c3cc2C#N)c(Br)c1`: the host macrophage viability was 128%.

Turning to `CCn1c(C)cc2cc(NC(=O)c3cc(C4CC4)nn3C)ccc21`, the host macrophage viability amounted to 114%.

In the case of `COc1cc(C(=O)NNc2nc3c(OC)ccc(OC)c3s2)cc(OC)c1OC`, the host macrophage viability is 107 ± 4.3%.

`O=C(CSc1nc2sc3c(c2c(=O)n1Cc1ccco1)CCC3)Nc1nccs1`: the host macrophage viability stood at 115%.

As to `O=C(OCCNC1=C(Cl)C(=O)c2ccccc2C1=O)c1ccccc1`, the host macrophage viability was found to be 101%.

For the compound `Cc1cc2oc(=O)cc(-c3cc4ccccc4o3)c2cc1OC(=O)C1CC1`, the host macrophage viability worked out at 131%.

`CCN1CCN(C(=O)C2CCN(C3=NS(=O)(=O)C(c4ccc(OC)cc4)=C3C)CC2)CC1`: the host macrophage viability was found to be 101%.

On to `COc1ccc(CCNc2ncnc3oc4c(c23)CCCC4)c(OC)c1`, for which the host macrophage viability stood at 109%.

Consider `CC(=O)c1ccc(OCC(O)CN2CCc3ccccc3C2)cc1` (centres undefined), for which the host macrophage viability came out at 116%.

Turning to `N#Cc1c(NC(=O)C2CC(=O)NN2Cc2ccccc2)sc2c1CCCC2` (centres undefined), the host macrophage viability was found to be 116%.

For the compound `Cc1nnc2sc(SCC(=O)Nc3ccc(Cl)cc3)nn2c1=O`, the host macrophage viability stood at 113%.

On to `O=C(Oc1ccc2oc(=O)cc(-c3cc4ccccc4o3)c2c1)c1cccs1`, for which the host macrophage viability turned out to be 113%.

As for `O=C(c1ccc2c(c1)OCO2)N1CCN(c2ccc(Nc3cccnc3)nn2)CC1`, the host macrophage viability was found to be 109%.

Consider `Cc1cc(=O)[nH]c(SCc2ccc(C(=O)Nc3nccs3)cc2)n1`, for which the host macrophage viability came to 111%.

On to `O=C(CSC1=NS(=O)(=O)c2cc(F)ccc2N1)NCc1ccccc1Cl`, for which the host macrophage viability is 107%.

Regarding `CCc1nnc2ccc(C(=O)N3CCN(c4ccccn4)CC3)cn12`, the host macrophage viability worked out at 123%.

As for `Cn1c2ccccc2c2nnc(SCC(=O)Nc3ccc(NC(=O)C4CC4)cc3)nc21`, the host macrophage viability is 110%.

Take `CCCCc1ccc(NC(=O)/C=C2\SC(=O)NC2=O)cc1`: the host macrophage viability was 121%.

As for `CCOC(=O)c1c(SC(CC)C(=O)OC)nc(=O)[nH]c1C` (centres undefined), the host macrophage viability is 121%.

For `CCOC(=O)N1CCN(C(=O)Cn2c(=O)n(-c3ccccc3)c(=O)c3oc4ccccc4c32)CC1`, the host macrophage viability was found to be 121%.

For `N#CC1=C(SCC(=O)N(c2ccccc2)c2ccccc2)NC2=C(C(=O)CCC2)C1c1ccco1` (centres undefined), the host macrophage viability came to 115%.

For `C=CCOc1ccc(C2NC(=O)c3c(sc4c3CCCC4)N2)cc1OC` (centres undefined), the host macrophage viability worked out at 110%.

As for `O=C(Cc1cc(=O)[nH]c(=O)[nH]1)NCCC(c1ccccc1)c1ccccc1`, the host macrophage viability came to 94.9%.

Consider `Cc1nc(Cl)c2c(C)c(C)n(-c3ccccc3)c2n1`, for which the host macrophage viability was 104%.

On to `CC(C)c1ccc2nc(SCC(=O)NCCc3c[nH]c4ccccc34)c(C#N)cc2c1`, for which the host macrophage viability amounted to 127%.

With `COc1ccc(-c2ccc(=O)n(C[C@H](C)NC(=O)c3cnn4cccnc34)n2)cc1`, the host macrophage viability amounted to 112%.

Consider `Cc1nc2cc(NC(=O)c3ccc(S(=O)(=O)N4CCC(C)CC4)cc3)ccc2s1`, for which the host macrophage viability came out at 120%.

On to `CN(C(=O)c1cccc(NC(=O)C2OCOc3ccccc32)c1)C1CCCCC1` (centres undefined), for which the host macrophage viability was 102%.

Take `O=C(Cn1c(=O)n(CCC(=O)NC2CCCC2)c(=O)c2ccccc21)NCCC1=CCCCC1`: the host macrophage viability was 116%.

For the compound `O=C(Nc1ccc(F)c(F)c1)c1ccc2nc[nH]c2c1`, the host macrophage viability was 120%.

Take `O=C(COc1ccc(Cl)cc1)NCCSc1ncc(-c2ccc(F)cc2)[nH]1`: the host macrophage viability was 116%.

`O=C(CSc1nnc2ccc(-c3cccnc3)nn12)NCc1ccco1`: the host macrophage viability turned out to be 112%.

With `COC(=O)Cn1/c(=N/C(=O)COc2ccc(Cl)cc2)sc2cc(NC(C)=O)ccc21`, the host macrophage viability is 119%.

For `CCN(CC)S(=O)(=O)c1ccc(C(=O)Oc2cc(C)[nH]c(=O)c2[N+](=O)[O-])cc1`, the host macrophage viability came out at 119%.
